Measured values as given in PubChem BioAssay AID1487 (National Center for Advancing Translational Sciences (NCATS), 2009).
Among all 200,000 compounds or so, about 25 (0.01%) were called active. Inconclusive means that the source gave no clear call. Such entries were picked first, then a sample of the others. Calls come from the whole dose curve; as a rule, active = well fitted inhibition curve with a large enough effect in the signal ratio, with a control signal flat (not every such curve was filed as active); inconclusive = small, poorly fitted or top-dose-only effect, or effect the other way, or a change in a side signal; inactive = flat fitted curve, though single readings scatter; the % refers to the signal ratio. Potencies beside an inconclusive call are fits to weak or partial responses and may not hold up.
% is set by controls: 0 for no effect and ±100 for the full control effect; potency is the fitted concentration of half-maximal effect.

Experiment: qHTS Assay for Modulators of Lamin A Splicing
Details: HeLa LMNA splicing GFP/RFP minigene ratio, 48 h; ratio change, negative = inhibition: at 46.1 µM (top of the series) unless noted
In short: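 S3 HeLa stable clones carrying a lamin A-EGFP splicing minigene plus DsRed2 were seeded at 600 cells/well in Opti-MEM with 2% FBS, pin-dosed and incubated 48 h at 37°C. Acumen cytometry (488 nm) gave the GFP/RFP total-intensity ratio.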
For COc1ccc2c(c1)Cc1sc(NC(=O)c3cccc(Br)c3)nc1-2, the ratio change, negative = inhibition was “inactive”. For O=C(N/N=C/c1ccc(N2CCOCC2)cc1)C1COc2ccccc2O1 (centres undefined), the ratio change, negative = inhibition was inconclusive: -15.1% [at 46 µM]. For CC(CCc1ccccc1)NC(=O)C1CCN(S(=O)(=O)N2CCOCC2)CC1 (centres undefined), the ratio change, negative = inhibition was inconclusive: 4.91%. With CCC(CC)C(=O)Nc1cccc(C(=O)Nc2nccs2)c1 the ratio change, negative = inhibition was “inactive”. In the case of Cc1ccc(CNS(=O)(=O)c2cc3c(cc2Cl)NC(=O)CO3)o1, the ratio change, negative = inhibition is reported as inconclusive: 16.7% [at 46 µM]. For O=C(CN1C(=O)NC2(CCCCCCC2)C1=O)N1CCc2ccccc2C1, the ratio change, negative = inhibition was inconclusive: -3.18%. In the case of CC1CCCCC1NC(=S)Nc1cccc(S(=O)(=O)N(C)C)c1 (centres undefined), the ratio change, negative = inhibition is reported as inconclusive: 15.5% [at 46 µM]. With COc1ccc(Cn2c(N)c(C#N)c3nc4ccccc4nc32)cc1OC the ratio change, negative = inhibition was “inactive”. For Cc1csc2nc(-c3ccc(NS(=O)(=O)c4cc(F)ccc4F)cc3)cn12, the ratio change, negative = inhibition was inconclusive: 16.1% [at 46 µM]. For OC1(c2cccc(C(F)(F)F)c2)CCN(Cc2nnnn2Cc2ccccc2)CC1, the ratio change, negative = inhibition was inconclusive: 15.4% [at 46 µM]. For CCCOc1ccc(C2C(=O)N(C3CCC(C)CC3)CC(=O)N2Cc2cccc(OC)c2)cc1OC (centres undefined), the ratio change, negative = inhibition was “inactive”. With COc1ccc2cc(-c3cc(C(=O)O)c4ccccc4n3)ccc2c1 the Potency was inconclusive: 4.47 µM [inhibitor, single point]. In the case of Nc1ccc2c(c1)OC1(CCCC1)O2, the ratio change, negative = inhibition is reported as inconclusive: -33.6% [at 46 µM]. In the case of CCCCCCCCOC(=O)CCc1c(C)[nH]c(=S)[nH]c1=O, the ratio change, negative = inhibition is reported as inactive: 2.54% [at 0.0737 µM]. With COc1cc(/C=C2/SC(=S)NC2=O)ccc1OS(=O)(=O)c1ccc(C)cc1 the Potency was inconclusive: 35.5 µM [falling, single point]. For C/C(=N\NC1=NCCN1)c1ccccc1, the ratio change, negative = inhibition was inconclusive: -8.51% [at 46 µM]. For CC(C)/C=N/Nc1nc(-c2ccc(Br)cc2)cs1, the Potency was inconclusive: 35.5 µM [fluorescent, single point]. With Cc1cc(C)c2c(n1)sc1c(-c3ccccc3)c(C#N)c(N)nc12 the ratio change, negative = inhibition was “inactive”. With Cc1c(N=C2NC(=O)/C(=C/c3cccc([N+](=O)[O-])c3)S2)c(=O)n(-c2ccccc2)n1C the ratio change, negative = inhibition was “inactive”. In the case of CCOc1ccc(Br)cc1S(=O)(=O)Nc1cccc(S(=O)(=O)N(C)c2ccccc2)c1, the Potency is reported as inconclusive: 20 µM [inhibitor, single point]. For COc1ccc2c(CC(=O)N3CCN(S(=O)(=O)c4cccs4)CC3)coc2c1, the ratio change, negative = inhibition was inconclusive: -6.06%. For COc1cccc(-c2nc(N(C)C)c3ccccc3n2)c1, the ratio change, negative = inhibition was inconclusive: -7.07%. With Cc1ccc(C(=O)N2C(=S)C(c3ccc(F)cc3)=NC23CCN(C)CC3)cc1 the Potency was inconclusive: 35.5 µM [fluorescent, single point]. With Cc1ccccc1Oc1nnc(-c2cccs2)c2ccccc12 the ratio change, negative = inhibition was inconclusive: -1.64%. With CCOC(=O)/C(=C/c1ccc(Cl)cc1)NC(=O)c1ccco1 the ratio change, negative = inhibition was inconclusive: -1.54%. For COc1ccc(OC)c(C2NC(=S)NC(C)=C2C(=O)Nc2ccccn2)c1 (centres undefined), the ratio change, negative = inhibition was “inactive”. In the case of Cc1ccc(OCCn2cnc(Cl)c2Cl)cc1, the ratio change, negative = inhibition is reported as inconclusive: 33.8% [at 46 µM]. For O=C(O)CC(NC(=O)OCc1ccccc1)c1ccccc1 (centres undefined), the ratio change, negative = inhibition was inconclusive: 0.246%. For COc1ccc(N=C2C(=O)Nc3ccccc32)cc1, the ratio change, negative = inhibition was “inactive”. In the case of COCCn1c(=S)[nH]c2cc(C(=O)N3CCN(Cc4ccc5c(c4)OCO5)CC3)ccc2c1=O, the ratio change, negative = inhibition is reported as inconclusive: -27.6%. For Cc1ccc(CNC(=O)CS(=O)(=O)c2cccc3nsnc23)cc1, the ratio change, negative = inhibition was inconclusive: 3.62% [at 46 µM]. With CCOC(=O)CC(NC(=O)c1ccco1)c1ccc(OC)cc1 (centres undefined) the ratio change, negative = inhibition was inconclusive: 10%. With Cc1ccc(CN2CCN(/N=C\C=C\c3ccccc3)CC2)cc1 the Potency was inconclusive: 20 µM [inhibitor, single point]. For CCc1nc2ccc(C(=O)NCc3cc(OC)ccc3OC)cc2nc1CC, the ratio change, negative = inhibition was inconclusive: 13.4% [at 46 µM]. With Cc1ccc(NCc2n[nH]c(=S)n2Cc2ccccc2)cc1Cl the ratio change, negative = inhibition was “inactive”. In the case of COC(=O)c1ccc(Oc2ccc3nnc(C)n3n2)cc1, the ratio change, negative = inhibition is reported as inconclusive: 15.2%. For COc1ccc(-n2ncc3c(=O)n(CC(=O)Nc4ccc(S(=O)(=O)N5CCOCC5)cc4)cnc32)cc1, the Potency was inconclusive: 35.5 µM [falling, single point]. For COc1ccc(N=C2SC(CC(=O)Nc3ccccc3)C(=O)N2Cc2ccccn2)cc1 (centres undefined), the ratio change, negative = inhibition was inconclusive: -12.2% [at 46 µM]. In the case of COc1ccc(Cl)cc1S(=O)(=O)NCc1ccc2c(c1)CCN2C(=O)c1cccc(C)c1, the ratio change, negative = inhibition is reported as inconclusive: -1.67% [at 46 µM]. In the case of COc1ccc(NC(=O)CCc2c(C)nn(-c3ccc(N4CCCCC4)nn3)c2C)cc1Cl, the ratio change, negative = inhibition is reported as inconclusive: -7.92% [at 46 µM]. For CCc1nnc(NC(=O)C2c3ccccc3Oc3ccccc32)s1, the Potency was inconclusive: 11.2 µM [falling, partial curve]. For O=C(COC(=O)/C=C/c1ccc(Br)o1)Nc1ccccc1F, the ratio change, negative = inhibition was inactive: 0.328% [at 9.22 µM]. In the case of O=C(Nc1ccc2nc(SCC(=O)N3CCOCC3)sc2c1)c1cccc(Br)c1, the ratio change, negative = inhibition is reported as inconclusive: -21.7% [at 46 µM]. For Cc1cccc(CNC(=O)C2CCC(CNS(=O)(=O)c3ccc4c(c3)CCCC(=O)N4)CC2)c1 (centres undefined), the ratio change, negative = inhibition was inconclusive: 8.11% [at 46 µM]. In the case of O=C(O)/C=C/C(=O)Nc1ccc(O)cc1, the ratio change, negative = inhibition is reported as inconclusive: 9.19% [at 46 µM]. In the case of CN(CCC#N)C(=O)COC(=O)c1ccc2[nH]c3c(c2c1)CCCC3, the Potency is reported as inconclusive: 11.2 µM [inhibitor, partial curve]. For COc1ccc(-c2cnc(C)o2)cc1S(=O)(=O)Nc1ccc(NC(C)=O)cc1, the ratio change, negative = inhibition was inconclusive: 21.1% [at 46 µM]. For CCC(=O)C1=C(c2ccc(F)cc2)N(C(=O)CC)n2c(nnc2-c2ccc(OC)cc2)S1, the ratio change, negative = inhibition was inconclusive: -11.8% [at 46 µM]. In the case of O=C1CC(N2CCN(c3cccc(C(F)(F)F)c3)CC2)C(=O)N1c1ccccc1F (centres undefined), the ratio change, negative = inhibition is reported as inconclusive: 16.4%.
